Results on 39 sequences are retold here after publication PMC7862700.

The other results are listed elsewhere or left out. The exact form of the protein is not confirmed.

The target in the assay is T1, ELF2 (UniProt Q15723).
T1 sequence: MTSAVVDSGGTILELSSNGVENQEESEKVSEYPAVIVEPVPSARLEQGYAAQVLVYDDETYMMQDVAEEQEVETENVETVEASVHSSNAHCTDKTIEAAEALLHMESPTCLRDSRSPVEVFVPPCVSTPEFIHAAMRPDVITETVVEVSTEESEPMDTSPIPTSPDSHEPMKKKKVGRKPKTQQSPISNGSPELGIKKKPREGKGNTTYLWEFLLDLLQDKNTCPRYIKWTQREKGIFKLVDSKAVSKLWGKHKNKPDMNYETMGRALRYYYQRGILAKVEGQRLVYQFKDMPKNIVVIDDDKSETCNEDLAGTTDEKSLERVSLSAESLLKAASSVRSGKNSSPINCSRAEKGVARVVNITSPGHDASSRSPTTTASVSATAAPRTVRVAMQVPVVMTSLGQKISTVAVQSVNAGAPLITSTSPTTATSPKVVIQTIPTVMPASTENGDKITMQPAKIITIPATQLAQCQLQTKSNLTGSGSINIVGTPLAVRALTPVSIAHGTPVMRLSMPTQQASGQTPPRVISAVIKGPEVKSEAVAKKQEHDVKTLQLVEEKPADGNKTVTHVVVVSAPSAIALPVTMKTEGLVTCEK
The assay is described as follows: DAPPL (digital affinity profiling via proximity ligation, sequencing). The settings on record: 10 mM Tris-HCl pH 7.5, 50 mM NaCl, 1 mM DTT, 4% glycerol, room temperature, 30 min; GST-TFs on glutathione beads, 16-mer random dsDNA library, 0.1% …; high values mean tight binding; double strand, one strand shown; scale: fold enrichment (6-mer frequency, TF over GST control).
On to TTTCCG, for which the binding signal is 5.33.

The sequence TATATG returned a binding signal of 1.3.

The sequence ATAAGT registered a binding signal of 1.03.

Sequence TGATAG yielded a binding signal of 0.976.

For CCGTTT, the binding signal is 1.5.

In the case of ACAAGA, the binding signal turned out to be 0.962.

CTTTAT came in with a binding signal of 1.19.

Consider TTTAAT, for which the binding signal amounted to 1.29.

In the case of TATGAT, the binding signal was determined as 1.15.

CCAGCT came in with a binding signal of 0.916.

On to ACTGGA, for which the binding signal is 0.975.

With TCCGAG, the binding signal amounted to 0.931.

Sequence TTTGCC gave a binding signal of 1.19.

In turn, AAGGAT showed a binding signal of 1.17.

In turn, TTGTGC came in with a binding signal of 1.15.

GTAGAT yielded a binding signal of 0.948.

AGATGC: the binding signal was 1.02.

Sequence TTCCCA registered a binding signal of 1.33.

Turning to CCACAA, the binding signal turned out to be 1.12.

As to ATCCCG, the binding signal turned out to be 1.53.

Take TACTGT: the binding signal was determined as 1.06.

The sequence TCCATT registered a binding signal of 1.24.

In turn, AATCAG showed a binding signal of 1.14.

CTATTA had a binding signal of 1.08.

For the sequence AATAGG, the binding signal stood at 1.23.

The sequence TTATTC had a binding signal of 1.37.

The sequence ATCCGG gave a binding signal of 3.37.

Regarding GGCACT, the binding signal was determined as 1.28.

In turn, CCCGTA gave a binding signal of 1.2.

In turn, CCCAGA had a binding signal of 0.846.

Regarding TCAAGT, the binding signal came out at 1.03.

Sequence GTTATT gave a binding signal of 1.17.

With AACCCC, the binding signal came out at 1.15.

Regarding GCAGAA, the binding signal came to 0.874.

ACGTAT displayed a binding signal of 1.2.

The sequence CTCGTT registered a binding signal of 1.21.

AGCGAA returned a binding signal of 0.919.

Turning to AGCCTT, the binding signal is 1.11.

With CCTCGA, the binding signal stood at 1.23.
